Data taken from article PMC8100066.
No constants are given. Whether binding was seen depends on the method and setting. In cells and extracts the contact can be indirect. Binding can be weak; no strength is given.

The chains behind the UniProt entries cited, without tags or fusion partners. Where a name states a change or a piece, a line headed by the entry shows the natural chain unless it says otherwise.
UniProt Q9UM47: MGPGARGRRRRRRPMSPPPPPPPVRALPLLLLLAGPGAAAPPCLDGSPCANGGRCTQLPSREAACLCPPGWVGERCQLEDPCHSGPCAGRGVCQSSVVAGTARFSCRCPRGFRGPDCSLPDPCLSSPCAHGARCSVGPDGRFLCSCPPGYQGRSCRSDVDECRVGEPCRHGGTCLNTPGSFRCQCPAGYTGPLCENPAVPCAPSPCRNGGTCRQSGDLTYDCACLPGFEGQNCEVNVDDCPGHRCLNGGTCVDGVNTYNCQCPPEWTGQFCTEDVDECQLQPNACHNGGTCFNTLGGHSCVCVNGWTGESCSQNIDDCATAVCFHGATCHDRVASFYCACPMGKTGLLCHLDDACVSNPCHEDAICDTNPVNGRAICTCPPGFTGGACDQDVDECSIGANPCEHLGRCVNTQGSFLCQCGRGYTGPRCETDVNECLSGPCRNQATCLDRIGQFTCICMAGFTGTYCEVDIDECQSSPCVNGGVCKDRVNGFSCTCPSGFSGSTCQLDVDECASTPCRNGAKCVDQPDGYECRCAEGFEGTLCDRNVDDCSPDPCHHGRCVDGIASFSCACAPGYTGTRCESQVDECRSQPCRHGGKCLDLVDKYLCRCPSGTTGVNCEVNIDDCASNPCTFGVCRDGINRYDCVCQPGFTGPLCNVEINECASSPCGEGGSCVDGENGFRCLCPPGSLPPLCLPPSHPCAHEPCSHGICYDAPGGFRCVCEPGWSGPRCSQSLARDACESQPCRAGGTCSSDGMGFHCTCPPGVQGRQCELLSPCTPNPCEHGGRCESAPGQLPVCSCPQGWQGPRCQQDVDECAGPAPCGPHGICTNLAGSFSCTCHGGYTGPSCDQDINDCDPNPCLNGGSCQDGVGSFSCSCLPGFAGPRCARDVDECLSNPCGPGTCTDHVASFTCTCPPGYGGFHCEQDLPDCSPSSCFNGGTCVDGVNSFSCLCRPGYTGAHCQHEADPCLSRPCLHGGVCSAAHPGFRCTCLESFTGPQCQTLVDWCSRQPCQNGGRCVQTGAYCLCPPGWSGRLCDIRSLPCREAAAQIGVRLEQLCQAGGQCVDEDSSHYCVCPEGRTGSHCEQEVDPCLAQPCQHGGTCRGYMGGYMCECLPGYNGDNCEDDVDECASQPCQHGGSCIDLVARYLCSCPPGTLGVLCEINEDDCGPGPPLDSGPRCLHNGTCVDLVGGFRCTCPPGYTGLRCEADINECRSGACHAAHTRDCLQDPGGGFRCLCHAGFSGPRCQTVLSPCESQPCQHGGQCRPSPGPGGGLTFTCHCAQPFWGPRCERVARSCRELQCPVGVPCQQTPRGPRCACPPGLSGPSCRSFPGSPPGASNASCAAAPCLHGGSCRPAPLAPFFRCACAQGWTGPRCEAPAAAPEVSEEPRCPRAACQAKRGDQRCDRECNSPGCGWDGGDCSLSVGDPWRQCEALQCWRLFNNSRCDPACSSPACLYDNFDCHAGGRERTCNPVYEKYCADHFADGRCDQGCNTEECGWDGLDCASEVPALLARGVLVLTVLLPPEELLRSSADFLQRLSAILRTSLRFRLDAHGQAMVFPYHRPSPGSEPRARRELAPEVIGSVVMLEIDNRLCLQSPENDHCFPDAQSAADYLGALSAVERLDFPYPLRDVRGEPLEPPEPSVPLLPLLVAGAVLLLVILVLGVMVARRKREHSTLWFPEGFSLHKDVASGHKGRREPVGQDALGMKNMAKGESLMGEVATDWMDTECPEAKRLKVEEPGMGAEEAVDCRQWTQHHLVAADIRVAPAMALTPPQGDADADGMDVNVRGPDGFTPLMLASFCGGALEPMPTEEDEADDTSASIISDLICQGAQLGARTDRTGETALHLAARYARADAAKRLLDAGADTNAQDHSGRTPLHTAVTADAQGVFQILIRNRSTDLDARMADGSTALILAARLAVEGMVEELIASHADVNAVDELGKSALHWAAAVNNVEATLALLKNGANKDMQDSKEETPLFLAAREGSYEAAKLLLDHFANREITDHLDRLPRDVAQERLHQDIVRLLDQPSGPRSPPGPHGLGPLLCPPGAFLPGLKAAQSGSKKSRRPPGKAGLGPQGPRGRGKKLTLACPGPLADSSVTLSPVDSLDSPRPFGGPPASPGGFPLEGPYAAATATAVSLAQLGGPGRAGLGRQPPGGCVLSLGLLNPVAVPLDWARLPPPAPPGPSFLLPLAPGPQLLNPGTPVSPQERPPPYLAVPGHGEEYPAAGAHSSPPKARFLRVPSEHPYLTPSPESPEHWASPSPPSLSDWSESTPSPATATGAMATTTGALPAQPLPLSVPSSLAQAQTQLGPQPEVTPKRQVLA
UniProt Q61982: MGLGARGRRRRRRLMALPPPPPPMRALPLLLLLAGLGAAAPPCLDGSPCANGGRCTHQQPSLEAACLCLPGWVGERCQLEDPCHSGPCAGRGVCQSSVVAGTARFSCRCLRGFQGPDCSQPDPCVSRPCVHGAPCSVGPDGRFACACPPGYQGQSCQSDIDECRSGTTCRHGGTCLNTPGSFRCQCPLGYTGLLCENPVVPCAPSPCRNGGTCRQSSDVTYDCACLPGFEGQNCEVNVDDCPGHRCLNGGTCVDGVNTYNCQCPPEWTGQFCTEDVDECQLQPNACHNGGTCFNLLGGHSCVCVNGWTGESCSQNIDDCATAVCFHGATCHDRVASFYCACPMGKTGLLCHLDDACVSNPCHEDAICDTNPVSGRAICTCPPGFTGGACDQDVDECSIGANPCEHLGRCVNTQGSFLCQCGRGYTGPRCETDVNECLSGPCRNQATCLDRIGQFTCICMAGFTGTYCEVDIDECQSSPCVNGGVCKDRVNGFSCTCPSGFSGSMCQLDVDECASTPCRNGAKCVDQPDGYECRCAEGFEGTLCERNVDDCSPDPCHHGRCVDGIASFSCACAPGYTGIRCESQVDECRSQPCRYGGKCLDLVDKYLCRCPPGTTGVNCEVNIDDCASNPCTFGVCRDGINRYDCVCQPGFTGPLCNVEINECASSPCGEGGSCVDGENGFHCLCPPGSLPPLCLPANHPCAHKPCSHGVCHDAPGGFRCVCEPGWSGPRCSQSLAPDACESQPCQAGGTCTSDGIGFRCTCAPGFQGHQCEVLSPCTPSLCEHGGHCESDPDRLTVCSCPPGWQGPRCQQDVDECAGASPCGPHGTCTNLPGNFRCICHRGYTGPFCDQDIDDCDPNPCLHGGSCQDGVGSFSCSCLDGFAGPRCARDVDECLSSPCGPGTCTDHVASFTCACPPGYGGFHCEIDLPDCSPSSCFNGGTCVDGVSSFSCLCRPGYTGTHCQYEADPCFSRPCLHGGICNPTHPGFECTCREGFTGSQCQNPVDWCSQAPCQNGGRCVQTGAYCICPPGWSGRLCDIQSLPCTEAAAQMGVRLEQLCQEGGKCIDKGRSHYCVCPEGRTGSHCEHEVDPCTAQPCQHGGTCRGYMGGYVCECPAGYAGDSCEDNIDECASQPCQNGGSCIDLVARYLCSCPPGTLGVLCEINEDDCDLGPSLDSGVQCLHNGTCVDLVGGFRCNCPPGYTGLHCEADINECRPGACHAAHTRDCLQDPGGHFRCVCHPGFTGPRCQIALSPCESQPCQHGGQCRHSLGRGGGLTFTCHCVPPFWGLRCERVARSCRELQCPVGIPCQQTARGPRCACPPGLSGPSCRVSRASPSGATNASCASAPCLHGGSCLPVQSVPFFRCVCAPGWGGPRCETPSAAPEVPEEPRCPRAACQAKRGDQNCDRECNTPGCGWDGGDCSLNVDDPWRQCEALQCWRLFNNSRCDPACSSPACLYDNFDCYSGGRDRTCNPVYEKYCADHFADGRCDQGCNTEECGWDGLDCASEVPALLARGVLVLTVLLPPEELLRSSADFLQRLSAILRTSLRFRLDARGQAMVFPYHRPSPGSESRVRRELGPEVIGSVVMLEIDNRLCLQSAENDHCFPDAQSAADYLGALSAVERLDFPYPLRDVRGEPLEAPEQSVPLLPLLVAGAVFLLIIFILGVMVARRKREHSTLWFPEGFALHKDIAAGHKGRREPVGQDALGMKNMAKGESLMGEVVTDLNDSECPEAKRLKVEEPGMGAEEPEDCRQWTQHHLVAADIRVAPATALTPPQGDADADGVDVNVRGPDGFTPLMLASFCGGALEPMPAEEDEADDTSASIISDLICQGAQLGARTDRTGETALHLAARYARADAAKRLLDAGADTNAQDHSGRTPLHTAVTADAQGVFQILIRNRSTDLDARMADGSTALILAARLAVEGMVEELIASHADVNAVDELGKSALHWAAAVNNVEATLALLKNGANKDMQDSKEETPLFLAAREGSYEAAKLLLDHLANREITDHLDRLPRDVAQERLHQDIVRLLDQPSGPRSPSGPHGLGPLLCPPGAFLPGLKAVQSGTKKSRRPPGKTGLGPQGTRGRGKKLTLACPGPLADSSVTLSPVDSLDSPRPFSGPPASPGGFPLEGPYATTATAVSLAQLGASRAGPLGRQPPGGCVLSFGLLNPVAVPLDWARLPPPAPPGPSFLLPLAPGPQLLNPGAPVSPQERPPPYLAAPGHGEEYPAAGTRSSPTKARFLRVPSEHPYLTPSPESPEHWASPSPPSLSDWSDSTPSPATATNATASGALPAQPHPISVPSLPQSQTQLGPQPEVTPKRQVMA
UniProt P11309: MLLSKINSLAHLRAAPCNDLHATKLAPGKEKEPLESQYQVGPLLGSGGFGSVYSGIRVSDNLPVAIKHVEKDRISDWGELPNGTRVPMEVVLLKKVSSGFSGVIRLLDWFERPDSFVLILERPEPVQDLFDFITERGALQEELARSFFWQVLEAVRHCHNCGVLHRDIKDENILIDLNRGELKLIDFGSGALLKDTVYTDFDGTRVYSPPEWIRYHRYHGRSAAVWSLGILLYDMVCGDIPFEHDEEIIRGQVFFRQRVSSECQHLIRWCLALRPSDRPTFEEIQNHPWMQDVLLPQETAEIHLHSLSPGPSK
UniProt P31266: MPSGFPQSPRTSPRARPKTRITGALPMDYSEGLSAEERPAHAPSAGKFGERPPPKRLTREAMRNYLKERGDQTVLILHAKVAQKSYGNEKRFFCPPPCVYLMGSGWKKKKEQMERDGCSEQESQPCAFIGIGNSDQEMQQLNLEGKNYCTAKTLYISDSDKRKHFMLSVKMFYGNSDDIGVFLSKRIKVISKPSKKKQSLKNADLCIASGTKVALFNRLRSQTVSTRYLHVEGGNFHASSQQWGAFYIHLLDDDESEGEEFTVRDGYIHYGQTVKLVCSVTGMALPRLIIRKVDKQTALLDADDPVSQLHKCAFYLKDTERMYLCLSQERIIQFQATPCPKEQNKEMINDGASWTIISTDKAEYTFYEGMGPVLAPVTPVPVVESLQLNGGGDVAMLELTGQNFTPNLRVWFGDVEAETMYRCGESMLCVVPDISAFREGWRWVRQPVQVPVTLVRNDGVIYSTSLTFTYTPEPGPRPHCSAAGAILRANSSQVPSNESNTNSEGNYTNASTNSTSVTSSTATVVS

Experiments:
[1] = target: endogenously expressed human NOTCH3 intracellular domain (N3ICD) (human) (UniProt Q9UM47); test: proximity ligation; endogenous proteins in MCF-7 cells; one PIM1 and two different N3ICD antibodies
[2] = target: GFP-tagged mouse Notch3 intracellular domain (N3ICD), WT (mouse) (UniProt Q61982); test: FRET or BRET; fluorescence-lifetime imaging of RFP-tagged PIM1 and GFP-tagged N3ICD transiently overexpressed in MCF-7 cells
[3] = target: FLAG-tagged mouse Notch3 intracellular domain (N3ICD) (mouse) (UniProt Q61982); test: co-IP; FLAG-tagged N3ICD and His-tagged PIM1 overexpressed in MCF-7 cells, treated with DMSO or 10 μM DHPCC-9; anti-FLAG affinity agarose gel or HisLink resin; Western blot
[4] = target: GFP-tagged mouse Notch3 intracellular domain (N3ICD), WT (mouse) (UniProt Q61982); test: co-IP; GFP-tagged N3ICD (WT, SA or SE) and FLAG-tagged CSL overexpressed in HeLa cells; GFP-trap immunoprecipitation; Western blot

endogenously expressed human PIM1 (from UniProt P11309 1-313) (enzyme)
binding [1]: binds

RFP-tagged human PIM1 (from UniProt P11309 1-313) (enzyme)
binding [2]: binds

His-tagged human PIM1 (from UniProt P11309 1-313) (enzyme)
binding [3]: binds

FLAG-tagged CSL (from UniProt P31266 1-526)
binding [4]: binds
